This note sets out measurements from patent US20140256664A1, “COMPOSITIONS AND METHODS FOR A MYCOBACTERIUM TUBERCULOSIS DRUG SUSCEPTIBILITY TEST” (priority 2011, published 2014).

This assay concerns M. tuberculosis isolates. The experiment in a line: microbe, parasite or virus in culture. Format: cell-based, Mycobacterium tuberculosis.

As for `NNC(=O)c1ccncc1` [Isoniazid, isoniazid], for the setting “Mycobacterium tuberculosis, read-out: MIC of agar proportion resistant isolates”, the MIC stood at 2 µg/mL. For the same compound, the “MIC of agar proportion resistant isolates” value (listed as INH) worked out at 4 µg/mL.
